Assay results published in the supplement of paper PMC4749390.
Where a name gives a salt, the structure may show the parent alone. The list shows a part of the results. This data set is noisy: repeats of one test often differ as much as different tests do.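 Wild-type human LRH-1, a heavily sumoylated nuclear receptor, is tetracycline-inducible in stable JEG3 cells. RT-qPCR measured SUMO-sensitive APOC3 and MUC1 transcripts, which rise with SUMO-less LRH-1 or UBC9 knockdown, versus TBP and DMSO controls. Robust Z-scores beyond ±2 flagged primary hits, followed by toxicity and TBP filtering.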

System: JEG3 expressing hLRH-1
Assay: APOC3 transcript change (ddCt vs TBP and DMSO), Z-score over library; higher = higher APOC3 expression
Conditions: 10 µM; time (hr): 24

Going from `CCC1NC(=O)c2cc(S(N)(=O)=O)c(Cl)cc2N1` (configuration not stated) [quinethazone] to `CN1C(CCl)Nc2cc(Cl)c(S(N)(=O)=O)cc2S1(=O)=O` (configuration not stated) [methyclothiazide], the “APOC3 transcript change (Z-score)” value rises from -0.458 to -0.249.

Compared with `O=C1NCC2(CCN(CCc3ccccc3)CC2)O1` [fenspiride hydrochloride], `Cc1cc(-c2ccccc2)nnc1NCCN1CCOCC1` [minaprine hydrochloride] is higher in “APOC3 transcript change (Z-score)” value: -0.241 for the first, 0.4 for the second.

Compared with `CNCCCC12CCC(c3ccccc31)c1ccccc12` [maprotiline hydrochloride], `CC(CN(C)C)CN1c2ccccc2Sc2ccccc21` (configuration not stated) [trimeprazine tartrate] is higher in “APOC3 transcript change (Z-score)” value: 0.0251 for the first, 0.441 for the second.

First: CCCOc1ccc2[nH]c(NC(=O)OC)nc2c1 [oxybendazole]
Second: COC(=O)Nc1nc2cc(Sc3ccccc3)ccc2[nH]1 [fenbendazole]
The “APOC3 transcript change (Z-score)” value of the first is lower: -2.13 for the first, -0.802 for the second.

Going from `Cc1cc2nc3c(=O)[nH]c(=O)nc-3n(C[C@H](O)[C@H](O)[C@H](O)CO)c2cc1C` [riboflavin] to `OCC(O)[C@@H](O)CO` (some centres not stated) [erythritol], the “APOC3 transcript change (Z-score)” value rises from -0.601 to 0.598.

First: O=C(O)Cc1cc(I)c(Oc2ccc(O)c(I)c2)c(I)c1 [tiratricol]
Second: CC(=O)Nc1c(I)cc(I)c(C(=O)O)c1I [acetriazoic acid]
The “APOC3 transcript change (Z-score)” value of the first is lower: 0.0146 for the first, 0.518 for the second.

First: O=C(OOC(=O)c1ccccc1)c1ccccc1 [benzoyl peroxide]
Second: CC(C(=O)O)c1cccc(C(=O)c2ccccc2)c1 (configuration not stated) [ketoprofen]
The “APOC3 transcript change (Z-score)” value of the first is higher: 0.208 for the first, -1.29 for the second.

Compared with `COC(=O)[C@H]1[C@H]2C[C@@H]3c4[nH]c5cc(OC)ccc5c4CCN3C[C@H]2C[C@@H](OC(=O)c2cc(OC)c(OC)c(OC)c2)[C@@H]1OC` [reserpine], `COc1cc(C(=O)N2CCOCC2)cc(OC)c1OC` [trimetozine] is higher in “APOC3 transcript change (Z-score)” value: 0.00039 for the first, 0.127 for the second.

Going from `CCCCC(CC)COC(=O)CC(C(=O)OCC(CC)CCCC)S(=O)(=O)O` (configuration not stated) [docusate sodium] to `CCCCCCCCCCCCCCCC(=O)OC/C=C(C)/C=C/C=C(C)/C=C/C1=C(C)CCCC1(C)C` [retinyl palmitate], the “APOC3 transcript change (Z-score)” value rises from -2.95 to 0.212.

First: C[C@@](Cc1ccc(O)c(O)c1)(NN)C(=O)O [S-(-)-Carbidopa]
Second: NC[C@H](O)c1ccc(O)c(O)c1 [norepinephrine]
The “APOC3 transcript change (Z-score)” value of the first is lower: -0.378 for the first, -0.0168 for the second.

First: CC[C@H](C)[C@H](N)C(=O)O [isoleucine (l)]
Second: CC(C)Cc1ccc([C@H](C)C(=O)O)cc1 [dexibuprofen]
The “APOC3 transcript change (Z-score)” value of the first is lower: -0.14 for the first, 1.03 for the second.

Going from `CC[C@H]1OC(=O)[C@H](C)[C@@H](O[C@H]2C[C@@](C)(OC)[C@@H](O)[C@H](C)O2)[C@H](C)[C@@H](O[C@@H]2O[C@H](C)C[C@H](N(C)C)[C@H]2O)[C@](C)(O)C[C@@H](C)/C(=N\OCOCCOC)[C@H](C)[C@@H](O)[C@]1(C)O` [roxithromycin] to `C[C@@H]1C/C=C/C=C/C=C/C=C/[C@H](O[C@@H]2O[C@H](C)[C@@H](O)[C@H](N)[C@@H]2O)C[C@@H]2O[C@](O)(C[C@@H](O)C[C@H]3O[C@@H]3/C=C/C(=O)O1)C[C@H](O)[C@H]2C(=O)O` [natamycin], the “APOC3 transcript change (Z-score)” value falls from 0.464 to -0.35.

Going from `Oc1c(Cl)cc(Cl)c2cccnc12` [chloroxine] to `CC(C(=O)O)c1ccc2c(c1)Cc1cccnc1O2` (configuration not stated) [pranoprofen], the “APOC3 transcript change (Z-score)” value rises from -0.2 to 0.118.

First: C/C(=C(/CCOP(=O)(O)O)SC(=O)c1ccccc1)N(C=O)Cc1cnc(C)nc1N (stereo in doubt) [benfotiamine]
Second: O=C(O)CCNC(=O)c1ccccc1 [betamipron]
The “APOC3 transcript change (Z-score)” value of the first is higher: 0.84 for the first, -1.01 for the second.

Compared with `CC(C)OC(=O)C(C)(C)Oc1ccc(C(=O)c2ccc(Cl)cc2)cc1` [fenofibrate], `CC(=O)Nc1ccc(OC(=O)c2ccccc2O)cc1` [acetaminosalol] is lower in “APOC3 transcript change (Z-score)” value: 0.686 for the first, -0.711 for the second.

First: CCOc1ccccc1OCCNC(C)Cc1ccc(OC)c(S(N)(=O)=O)c1 (configuration not stated) [tamsulosin hydrchloride]
Second: CC1Cc2ccccc2N1NC(=O)c1ccc(Cl)c(S(N)(=O)=O)c1 (configuration not stated) [indapamide]
The “APOC3 transcript change (Z-score)” value of the first is higher: 0.394 for the first, -1.11 for the second.

First: CCC(=O)OCC(=O)[C@@]1(OC(=O)CC)[C@@H](C)CC2C3CCC4=CC(=O)C=C[C@]4(C)C3(F)[C@@H](O)C[C@@]21C (some centres not stated) [betamethasone 17,21-dipropionate]
Second: CC1(C)O[C@@H]2C[C@H]3[C@@H]4C[C@H](F)C5=CC(=O)C=C[C@]5(C)[C@@]4(F)[C@@H](O)C[C@]3(C)[C@]2(C(=O)CO)O1 [fluocinolone acetonide]
The “APOC3 transcript change (Z-score)” value of the first is higher: 0.386 for the first, -0.777 for the second.

Compared with `C=C1c2cccc(O)c2C(O)=C2C(=O)[C@]3(O)C(O)=C(C(N)=O)C(=O)[C@@H](N(C)C)[C@@H]3[C@@H](O)[C@H]12` [methacycline hydrochloride], `Cn1nnnc1SCC1=C(C(=O)O)N2C(=O)C(NC(=O)C(O)c3ccccc3)C2SC1` (configuration not stated) [cefamandole sodium] is lower in “APOC3 transcript change (Z-score)” value: 0.852 for the first, 0.425 for the second.

First: Nc1ccc(S(=O)(=O)Nc2ccccn2)cc1 [sulfapyridine]
Second: Nc1ccc(S(=O)(=O)Nc2ncccn2)cc1 [sulfadiazine]
The “APOC3 transcript change (Z-score)” value of the first is lower: -1.42 for the first, 0.25 for the second.

Compared with `CCn1cc(C(=O)O)c(=O)c2cc(F)c(N3CCNC(C)C3)c(F)c21` (configuration not stated) [lomefloxacin hydrochloride], `CC1(C)C2CCC1(CS(=O)(=O)O)C(=O)/C2=C\c1ccc(/C=C2\C(=O)C3(CS(=O)(=O)O)CCC2C3(C)C)cc1` [ecamsule triethanolamine] is lower in “APOC3 transcript change (Z-score)” value: -0.0954 for the first, -0.135 for the second.

Going from `CC1=NS(=O)(=O)c2cc(Cl)ccc2N1` [Diazoxide] to `Cc1cc(C)nc(NS(=O)(=O)c2ccc(N)cc2)n1` [sulfamethazine], the “APOC3 transcript change (Z-score)” value rises from -0.266 to 0.261.

Compared with `Cc1ccc(S(=O)(=O)NC(=O)NN2CCCCCC2)cc1` [Tolazamide], `CC(=O)Nc1ccc(S(=O)(=O)c2ccc(NC(C)=O)cc2)cc1` [acedapsone] is higher in “APOC3 transcript change (Z-score)” value: 0.414 for the first, 0.676 for the second.

First: CCN(CC)CCOC(=O)C(Cc1cccc2ccccc12)CC1CCCO1 (configuration not stated) [nafronyl oxalate]
Second: CCN(CC)CCNC(=O)c1ccc(N)cc1 [Procainamide hydrochloride]
The “APOC3 transcript change (Z-score)” value of the first is lower: -0.625 for the first, -0.248 for the second.

Going from `Nc1cc(N2CCCCC2)nc(N)[n+]1[O-]` [Minoxidil] to `O=NN(CCCl)C(=O)NC1CCCCC1` [lomustine], the “APOC3 transcript change (Z-score)” value rises from 0.398 to 0.813.

Compared with `CC(=O)N(CC(O)CO)c1c(I)c(C(=O)NCCO)c(I)c(C(=O)NCC(O)CO)c1I` (configuration not stated) [ioxilan], `CC(=O)Nc1c(I)c(NC(C)=O)c(I)c(C(=O)O)c1I` [diatrizoic acid] is higher in “APOC3 transcript change (Z-score)” value: -0.391 for the first, 0.304 for the second.

Compared with `CC(C)(C)NC[C@H](O)COc1ccccc1C1CCCC1` [penbutolol sulfate], `CC(C)[N+]1(C)C2CC[C@H]1C[C@@H](OC(=O)C(CO)c1ccccc1)C2` (some centres not stated) [ipratropium bromide] is lower in “APOC3 transcript change (Z-score)” value: 0.417 for the first, -0.101 for the second.

Compared with `CN[C@@H]1[C@@H](O[C@H]2O[C@H](CO)[C@@H](N)[C@H](O)[C@H]2O)O[C@H]2C[C@@H](N)[C@H](O[C@H]3[C@H](O)[C@@H](O)[C@H](N)C[C@@H]3N)O[C@@H]2[C@@H]1O` [apramycin sulfate], `CO/N=C(\C(=O)N[C@@H]1C(=O)N2C(C(=O)O)=C(COC(C)=O)CS[C@H]12)c1csc(N)n1` [cefotaxime sodium] is higher in “APOC3 transcript change (Z-score)” value: -0.128 for the first, 1.95 for the second.

Compared with `CN(C)CCN(Cc1ccc(Cl)cc1)c1ccccn1` [chloropyramine hydrochloride], `O=C(Oc1cccc2cccnc12)c1ccccc1` [benzoxiquine] is higher in “APOC3 transcript change (Z-score)” value: -1.18 for the first, 1.72 for the second.

Going from `O=C(O)C1=C(CSc2nnnn2CS(=O)(=O)O)CS[C@@H]2[C@H](NC(=O)[C@H](O)c3ccccc3)C(=O)N12` [cefonicid sodium] to `CCOC(=O)[C@H](CCc1ccccc1)N[C@H]1CCc2ccccc2N(CC(=O)O)C1=O` [benazepril hydrochloride], the “APOC3 transcript change (Z-score)” value falls from 0.5 to 0.374.

First: Nc1nc(O)c2ncn(COCCO)c2n1 [Acyclovir]
Second: CCOC(=O)Nc1nc2ccccc2[nH]1 [lobendazole]
The “APOC3 transcript change (Z-score)” value of the first is lower: -0.0831 for the first, 0.806 for the second.

Going from `COC(=O)[C@H](Cc1ccccc1)NC(=O)[C@@H](N)CC(=O)O` [aspartame] to `CC(C)n1c(/C=C/[C@@H](O)C[C@@H](O)CC(=O)O)c(-c2ccc(F)cc2)c2ccccc21` [fluvastatin], the “APOC3 transcript change (Z-score)” value rises from 1.09 to 1.29.

Compared with `CN(C)CCOC(c1ccccc1)c1ccccc1.Cn1c(=O)c2[nH]c(Cl)nc2n(C)c1=O` [dimenhydrinate], `O=c1ccc2ccccc2o1` [coumarin] is lower in “APOC3 transcript change (Z-score)” value: -0.312 for the first, -0.774 for the second.

Compared with `N=C(NCCCCCCNC(=N)NC(=N)Nc1ccc(Cl)cc1)NC(=N)Nc1ccc(Cl)cc1` [chlorhexidine], `Cc1ccc(N(CC2=NCCN2)c2cccc(O)c2)cc1` [Phentolamine mesylate] is lower in “APOC3 transcript change (Z-score)” value: 0.11 for the first, -0.422 for the second.

Compared with `C=COCC(F)(F)F` [fluroxene], `CC(C)(CO)C(O)C(=O)NCCC(=O)NCCSSCCNC(=O)CCNC(=O)C(O)C(C)(C)CO` (configuration not stated) [pantethine] is lower in “APOC3 transcript change (Z-score)” value: -0.327 for the first, -1.06 for the second.

First: CC(C)CC(NC(=O)C(C)NC(=O)CNC(=O)C(NC=O)C(C)C)C(=O)NC(C)C(=O)NC(C(=O)NC(C(=O)NC(C(=O)NC(Cc1c[nH]c2ccccc12)C(=O)NC(CC(C)C)C(=O)NC(Cc1c[nH]c2ccccc12)C(=O)NC(CC(C)C)C(=O)NC(Cc1c[nH]c2ccccc12)C(=O)NC(CC(C)C)C(=O)NC(Cc1c[nH]c2ccccc12)C(=O)NCCO)C(C)C)C(C)C)C(C)C (configuration not stated) [gramicidin (gramicidin a shown)]
Second: CC#C[C@]1(O)CC[C@H]2[C@@H]3CCC4=CC(=O)CCC4=C3[C@@H](c3ccc(N(C)C)cc3)C[C@@]21C [mifepristone]
The “APOC3 transcript change (Z-score)” value of the first is lower: -0.0693 for the first, 0.165 for the second.

First: COc1cc(NS(=O)(=O)c2ccc(N)cc2)ncn1 [sulfamonomethoxine]
Second: O=C(O)P(=O)(O)O [foscarnet sodium]
The “APOC3 transcript change (Z-score)” value of the first is higher: -0.368 for the first, -0.745 for the second.
